{"source": "patent US5837729A", "about": "“Methods for treating and preventing HIV infection using acetaminophen and derivatives thereof” (priority 1996, dated 1998)", "origin": "cited, not measured here", "settings": "oral, standard 650 mg dose every six hours; cited from earlier work", "note": "The name of at least one read-out is uncertain."}
{"molecule": "CC(=O)Nc1ccc(O)cc1", "note": "[Acetaminophen, acetaminophen]", "values": [{"measurement": "antivirally active concentration in serum readily attained", "result": "8 to 21", "unit": "µg/mL"}]}
